Source: patent US6774254B2, “Gold complexes” (National University of Singapore, priority 2000, dated 2004)
Some of these results come from one statement about several compounds together. At least one compound was matched to its structure with a doubt left.

Test system: normal lymphocytes
Assay: cytotoxicity against normal lymphocytes from healthy adults
Format: cell-based, human
Details: 2 h exposure, incubated 2 days, 100,000 cells/well

## CCOC(=O)C1C(P(c2ccccc2)c2ccccc2)C2C(C)=C(C)C1P2c1ccccc1.[Cl][Au].[Cl][Au] [(Sp)-I, μ-{(1α,4α,5α(R),6β(S),7S)-5-(diphenylphosphino)-2,3-dimethyl-6-(ethoxycarbonyl)-7-phenyl-7-phosphabicyclo[2.2.1]hept-2-ene-P5,P7}bis[chlorogold(I)]]
  IC50: > 10 µM

## CCOC(=O)C1C(P(c2ccccc2)c2ccccc2)C2C(C)=C(C)C1P2c1ccccc1.[Cl][Au].[Cl][Au] [(Rp)-I, μ-{(1α,4α,5α(S),6β(R),7R)-5-(diphenylphosphino)-2,3-dimethyl-6-(ethoxycarbonyl)-7-phenyl-7-phosphabicyclo[2.2.1]hept-2-ene-P5,P7}bis[chlorogold(I)]]
  IC50: > 10 µM
